These are yes or no findings as the source states them, for the method shown. Some results given as binding are weak or reduced against the parent protein; the word gives no strength.
Target: T1, growth arrest-specific protein GAS7b (UniProt O60861)
T1 sequence (looked up): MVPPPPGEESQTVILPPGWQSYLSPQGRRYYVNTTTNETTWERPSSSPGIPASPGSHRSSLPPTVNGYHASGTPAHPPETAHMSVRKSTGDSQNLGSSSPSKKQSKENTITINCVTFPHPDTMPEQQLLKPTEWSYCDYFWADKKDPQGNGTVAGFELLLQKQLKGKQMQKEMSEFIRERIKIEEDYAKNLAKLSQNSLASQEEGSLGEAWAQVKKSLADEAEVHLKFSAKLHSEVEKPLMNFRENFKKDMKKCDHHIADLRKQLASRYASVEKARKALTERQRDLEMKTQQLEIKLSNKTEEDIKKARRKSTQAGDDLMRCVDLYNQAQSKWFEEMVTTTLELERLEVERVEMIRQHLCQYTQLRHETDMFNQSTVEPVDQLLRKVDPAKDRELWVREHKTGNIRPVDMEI
Test: yeast two-hybrid library search

Amino acid sequences for entries named in this document (tags omitted).
UniProt Q99816: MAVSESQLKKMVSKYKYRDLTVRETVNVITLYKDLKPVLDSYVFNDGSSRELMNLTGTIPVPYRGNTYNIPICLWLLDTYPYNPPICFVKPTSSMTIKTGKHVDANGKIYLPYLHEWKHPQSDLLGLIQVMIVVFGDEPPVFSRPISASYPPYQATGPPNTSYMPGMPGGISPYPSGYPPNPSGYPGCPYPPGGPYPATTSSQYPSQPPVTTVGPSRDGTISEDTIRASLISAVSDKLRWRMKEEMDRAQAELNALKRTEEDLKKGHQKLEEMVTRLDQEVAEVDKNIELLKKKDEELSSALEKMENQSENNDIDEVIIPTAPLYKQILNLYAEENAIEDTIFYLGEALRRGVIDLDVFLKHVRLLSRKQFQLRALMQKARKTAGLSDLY

- binding: binds
Substance: tumor susceptibility gene 101 protein (Tsg101) used to search a spleen library (from UniProt Q99816 1-390)

— EP1377165B1
